According to PubChem BioAssay AID588590 (National Center for Advancing Translational Sciences (NCATS), 2011):
Out of some 390,000 compounds screened, about 4,000 (1%) were called active. This list was built around the results that the source calls inconclusive (neither active nor inactive); the mix of calls is not that of the screen. The call rests on the fitted dose curve; in most records, active means well fitted inhibition curve with a large enough effect; inconclusive means small, poorly fitted or top-dose-only effect, or another doubt; inactive means no such curve, though single readings can be large or run the other way. Potencies of inconclusive entries are doubtful fits and often do not repeat.

Protein sequences, listed by entry. Tags and fused reporters are not part of them. Lines headed by an entry give the natural chain unless they say otherwise; changes in a name come on top.
UniProt Q9UNA4: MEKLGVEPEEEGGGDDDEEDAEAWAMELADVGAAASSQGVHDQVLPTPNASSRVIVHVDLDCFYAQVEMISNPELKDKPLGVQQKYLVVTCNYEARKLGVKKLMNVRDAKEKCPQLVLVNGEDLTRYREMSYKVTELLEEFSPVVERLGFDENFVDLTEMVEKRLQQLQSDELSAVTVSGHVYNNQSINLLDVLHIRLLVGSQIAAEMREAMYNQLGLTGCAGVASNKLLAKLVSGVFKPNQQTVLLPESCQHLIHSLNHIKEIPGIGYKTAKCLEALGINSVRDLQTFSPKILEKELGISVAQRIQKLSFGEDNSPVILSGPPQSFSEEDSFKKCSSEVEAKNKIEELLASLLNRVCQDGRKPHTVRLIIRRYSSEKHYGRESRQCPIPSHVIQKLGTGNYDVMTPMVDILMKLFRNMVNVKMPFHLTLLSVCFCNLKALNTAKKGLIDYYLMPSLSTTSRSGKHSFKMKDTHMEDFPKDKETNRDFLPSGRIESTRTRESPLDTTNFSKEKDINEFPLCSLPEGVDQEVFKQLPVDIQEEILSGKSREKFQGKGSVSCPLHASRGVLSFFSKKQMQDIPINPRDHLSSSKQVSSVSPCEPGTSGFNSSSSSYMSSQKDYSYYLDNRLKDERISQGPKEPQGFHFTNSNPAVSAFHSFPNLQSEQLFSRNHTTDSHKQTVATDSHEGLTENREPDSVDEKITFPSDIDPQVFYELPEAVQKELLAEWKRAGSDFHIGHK

The compounds below were run against DNA polymerase iota (Homo sapiens) (UniProt Q9UNA4) (assay: qHTS for Inhibitors of Polymerase Iota). Settings: Pol iota fluorescent replication assay, 10 min; series mostly up to 115 µM.
In short: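 Pol iota at 10 nM preincubated 15 min with compounds at room temperature; reaction started with fluorescent substrate, 50 nM final. Fluorescence read kinetically at 0 and 10 min; buffer-only wells as negative control.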
Potency means the concentration at half of the fitted maximal effect.

| SMILES | Potency |
| --- | --- |
| Cc1nc(-c2ccc(Cl)cc2)sc1C1(C)CC(c2ccc(C#N)cc2)=NO1 (stereo not drawn) | inconclusive: 79.4 µM [inhibitor, single point] |
| Cc1cc(C(=O)CSc2nc3ccc(Cl)cc3[nH]2)c(C)n1Cc1ccco1 | active: 22.4 µM |
| O=S1(=O)N=C(N/N=C/c2ccc(Br)o2)c2ccccc21 | inconclusive: 31.6 µM [inhibitor, partial curve, poor fit] |
| c1ccc(OCc2nn3c(Cn4nnc5ccccc54)nnc3s2)cc1 | inconclusive: 50.1 µM [inhibitor, partial curve, poor fit] |
| COc1ccc(C(=O)COC(=O)/C=C/c2ccco2)cc1F | active: 35.5 µM |
| CC(=O)N1CC=CC1(CC(C)C)C(=O)NCCN1CCOCC1 (stereo not drawn) | inconclusive: 11.2 µM [inhibitor, partial curve, poor fit] |
| CCCCCCC1CCC(C(=O)NC(C(=O)O)C(C)C)CC1 (stereo not drawn) | inconclusive: 35.5 µM [inhibitor, single point] |
| CC1SC(=S)N(c2ccc(N(C)C)cc2)C1=O (stereo not drawn) | inconclusive: 14.1 µM [inhibitor, full curve] |
| C/C(=N\NC(=O)c1cc(O)ccc1O)c1cccc(NC(=O)c2cccc(Cl)c2)c1 | inconclusive: 50.1 µM [inhibitor, partial curve, poor fit] |
| COc1ccc(-n2nc3c(c2NC(=O)CCl)CSC3)cc1 | inconclusive: 31.6 µM [inhibitor, full curve] |
| COc1cc(/C=C2/SC(=S)N(Cc3ccccc3)C2=O)cc(Cl)c1O | inactive |
| CN(C(=O)COc1coc(CN2CCN(c3ccccc3)CC2)cc1=O)c1ccccc1 | inactive |
| CN(C)c1ccc(CNC(=O)c2ccc3nc(CCc4ccccc4)oc3c2)cc1 | inactive |
| O=C(NCc1cccc(Br)c1)C1CC(c2ccccc2[N+](=O)[O-])=NO1 (stereo not drawn) | inconclusive: 39.8 µM [inhibitor, single point] |
| CCOc1ccccc1N(CC(=O)OC)S(C)(=O)=O | inconclusive: 70.8 µM [inhibitor, single point] |
| NNC(=S)NCc1ccco1 | active: 20 µM |
| Cc1ccc(/C=C/c2onc(C)c2S(=O)(=O)N2CCC(C(=O)N(CCC(C)C)Cc3ccco3)CC2)cc1 | inactive |
| CCOC(=O)c1c(S(=O)(=O)NCCCc2ccco2)c(C)n(C)c1C | inconclusive: 44.7 µM [inhibitor, partial curve] |
| O=C(CC(Sc1ccc(Br)cc1)C(=O)O)c1ccc(F)cc1 (stereo not drawn) | inconclusive: 0.708 µM [inhibitor, full curve, poor fit] |
| Fc1ccc(NCc2cccnc2)cc1F | inconclusive: 28.2 µM [inhibitor, single point] |
| c1ccc2c(c1)CCN(c1ncnc3c1[nH]c1ccccc13)C2 | inconclusive: 31.6 µM [inhibitor, partial curve, poor fit] |
| Cn1c2c(c(=O)n(C)c1=O)C(c1ccccc1Cl)C(C#N)=C(N)O2 (stereo not drawn) | inconclusive: 22.4 µM [inhibitor, partial curve, poor fit] |
| Cc1cc(NC(=O)c2cc(S(=O)(=O)N3CCCCC3)ccc2C)no1 | inconclusive: 39.8 µM [inhibitor, partial curve, poor fit] |

| SMILES | Potency |
| --- | --- |
| CC(C)(C)n1ncc2c(=O)n(Cc3ccc(Cl)c(SC(F)(F)F)c3)cnc21 | inactive |
| Oc1ccc(-c2nc(-c3ccc(O)c(O)c3)cs2)cc1 | inconclusive: 39.8 µM [inhibitor, partial curve, poor fit] |
| CC12CCC=CC1C(c1cccc(Br)c1)N(Cc1ccccc1)C2=O (stereo not drawn) | inconclusive: 14.1 µM [inhibitor, partial curve, poor fit] |
| Oc1ccc(C[C@H]2CNCCN2CC2(c3ccccc3)CC2)cc1 | inconclusive: 28.2 µM [inhibitor, full curve, poor fit] |
| Cc1ccc(C)c(Cn2c(=O)n(CCCC(=O)NCc3ccc4c(c3)OCO4)c(=O)c3sccc32)c1 | inactive |
| COc1cc(/C=C(/C#N)c2nc3ccccc3[nH]2)ccc1Oc1ncccc1[N+](=O)[O-] | inconclusive: 15.8 µM [inhibitor, full curve] |
| O=C(CCNC(=O)c1ccccc1)NN=Cc1ccc(Br)o1 | active: 35.5 µM |
| O=C(c1ccc(Cl)cc1)C(Cn1cncn1)C(Sc1ccccc1)c1ccccc1 (stereo not drawn) | inconclusive: 20 µM [inhibitor, partial curve, poor fit] |
| CCOc1cc(/C=C/c2nc3ccccc3s2)ccc1OCC(=O)N1CCOCC1 | inconclusive: 89.1 µM [inhibitor, partial curve, poor fit] |
| COc1ccc(-c2cc3nc(C)n(N)c(=O)c3s2)cc1 | inactive |
| CCOc1ccccc1NC(=O)Cn1nnc(C(=O)NCc2ccc3c(c2)OCO3)c1N | inconclusive: 56.2 µM [inhibitor, single point] |
| O=C(N/N=C/c1ccc([N+](=O)[O-])o1)c1cc(-c2ccncc2)nc2ccccc12 | inconclusive: 28.2 µM [inhibitor, full curve, poor fit] |
| CC(=NNC(=O)c1ccncc1)c1ccccc1Cl | inactive |
| CCCN=C1N(C)C[C@@H]2[C@@H]3C(=O)N(Cc4ccccc4)C(=O)[C@@H]3[C@](CC)(C(=O)OC)N12 | inconclusive: 1.58 µM [inhibitor, partial curve, poor fit] |
| COc1ccc(CCn2c(C)cc(C(=O)CCl)c2C)cc1OC | inconclusive: 25.1 µM [inhibitor, partial curve] |
| Cc1oc2c(c1C(=O)c1ccccc1)C(=O)C(=O)c1ccccc1-2 | active: 0.891 µM |
| CN[C@H](CC(=O)O)C(=O)O | inconclusive: 35.5 µM [inhibitor, single point] |
| COc1[nH]c(/N=C/c2ccccc2)c(C#N)c1C#N | active: 79.4 µM |
| CS(=O)(=O)c1ccc(C(=O)OC2CCOC2=O)cc1[N+](=O)[O-] (stereo not drawn) | inconclusive: 20 µM [inhibitor, partial curve, poor fit] |
| COc1ccccc1-n1c(=O)n(C)c2c(C(N)=O)nc(-c3cc(OC)c(OC)c(OC)c3)nc21 | inactive |
| CCC(C)NC(=O)C(NS(=O)(=O)c1ccc2c(c1)c(=O)n(C)c(=O)n2C)c1ccccc1 (stereo not drawn) | inconclusive: 35.5 µM [inhibitor, single point] |
| CCN(CC)c1ccc(C(=O)OCC(=O)NC2CCCCC2C)cc1 (stereo not drawn) | inconclusive: 25.1 µM [inhibitor, partial curve, poor fit] |
| Nc1ccc(-c2c3ccc(=O)cc-3oc3cc(O)ccc23)cc1C(=O)O | active: 25.1 µM |

| SMILES | Potency |
| --- | --- |
| CCc1ccccc1NC(=O)CSc1nc2c(c(=O)[nH]1)CN(Cc1ccccc1OC)CC2 | inactive |
| Cc1cc(NC(=O)CSc2ccc3nnc(-c4ccccc4)n3n2)no1 | inconclusive: 89.1 µM [inhibitor, single point] |
| O=C(O)C1CSCN1S(=O)(=O)c1cccc2nsnc12 (stereo not drawn) | inconclusive: 39.8 µM [inhibitor, single point] |
| Cc1cccc(C)c1Nc1nc2ccccc2o1 | inactive |
| N#C/C(=N\Nc1cccc(F)c1)C(=O)C1CC1 | inconclusive: 50.1 µM [inhibitor, partial curve, poor fit] |
| CC(C)(C)C1COc2ccccc2N1C(=O)c1cccc(Cl)c1 (stereo not drawn) | inactive |
| CC(=O)OC(C=C(C)C)C/C(C)=C/COc1c2ccoc2cc2oc(=O)ccc12 (stereo not drawn) | inconclusive: 44.7 µM [inhibitor, partial curve] |
| Nc1c2nc(-c3ccccc3)[nH]c(=O)c2nc(=O)n1-c1ccccc1 | inconclusive: 44.7 µM [inhibitor, partial curve] |
| O=C(/C=C/c1ccccc1)CCN1CCCCC1 | inconclusive: 10 µM [inhibitor, partial curve] |
| O=C(c1ccco1)N1CCN(C(=O)C(Cc2ccccc2)NS(=O)(=O)c2cccs2)CC1 (stereo not drawn) | inconclusive: 39.8 µM [inhibitor, single point] |
| CCc1c(C)c(C#N)c2[nH]c3ccccc3n2c1=S | inconclusive: 35.5 µM [inhibitor, single point] |
| O=C(NCCCNCCCNC(=O)c1ccc(/C=N/O)nc1)c1ccc(/C=N/O)nc1 | inconclusive: 14.1 µM [inhibitor, partial curve, poor fit] |
| Cc1ccn2c(=O)nc(SCC(=O)NC3CCCCC3)nc2c1 | inactive |
| CC1CCCCN1C(=O)CSc1nc(N)cc(=O)[nH]1 (stereo not drawn) | inactive |
| N=C1S/C(=C\c2cn[nH]c2-c2ccc(F)cc2)C(=O)N1c1ccccc1F | inactive |
| CCN1C(N(C)C)=NC[C@@H]1Cc1ccccc1 | inconclusive: 22.4 µM [inhibitor, partial curve, poor fit] |
| CC[n+]1c(/C=C(\C)SC)sc2ccccc21 | inconclusive: 112 µM [inhibitor, partial curve, poor fit] |
| CC(C)(C)OC(=O)N1CCN(c2ccc(NC(=O)Cn3nnc(-c4ccccc4)n3)cc2)CC1 | inconclusive: 3.16 µM [inhibitor, single point] |
| O=S(=O)(c1cccc(S(=O)(=O)N2CCN(c3ncccn3)CC2)c1)N1CCOCC1 | inactive |
| Cc1ccc(NC(=O)C(=O)NCCc2sc(-c3ccc(Cl)cc3)nc2C)cc1C | inactive |
| Nc1nonc1C(=O)NCCNC(=O)c1ccc(Cl)c(Cl)c1 | inconclusive: 3.55 µM [inhibitor, partial curve, poor fit] |
| O=C(CN1C(=O)/C(=C/c2cccc(Br)c2)SC1=S)NCCCN1CCOCC1 | inconclusive: 20 µM [inhibitor, partial curve, poor fit] |

3 compounds drawn at random from those above:

| SMILES | Potency |
| --- | --- |
| O=C(NCc1cccc(Br)c1)C1CC(c2ccccc2[N+](=O)[O-])=NO1 (stereo not drawn) | inconclusive: 39.8 µM [inhibitor, single point] |
| CCCCCCC1CCC(C(=O)NC(C(=O)O)C(C)C)CC1 (stereo not drawn) | inconclusive: 35.5 µM [inhibitor, single point] |
| Cc1cc(NC(=O)CSc2ccc3nnc(-c4ccccc4)n3n2)no1 | inconclusive: 89.1 µM [inhibitor, single point] |
